Results on 1 substance are retold here after paper PMC7887808.

Chains of the proteins cited; added tags and fusions are not shown.
UniProt P53396: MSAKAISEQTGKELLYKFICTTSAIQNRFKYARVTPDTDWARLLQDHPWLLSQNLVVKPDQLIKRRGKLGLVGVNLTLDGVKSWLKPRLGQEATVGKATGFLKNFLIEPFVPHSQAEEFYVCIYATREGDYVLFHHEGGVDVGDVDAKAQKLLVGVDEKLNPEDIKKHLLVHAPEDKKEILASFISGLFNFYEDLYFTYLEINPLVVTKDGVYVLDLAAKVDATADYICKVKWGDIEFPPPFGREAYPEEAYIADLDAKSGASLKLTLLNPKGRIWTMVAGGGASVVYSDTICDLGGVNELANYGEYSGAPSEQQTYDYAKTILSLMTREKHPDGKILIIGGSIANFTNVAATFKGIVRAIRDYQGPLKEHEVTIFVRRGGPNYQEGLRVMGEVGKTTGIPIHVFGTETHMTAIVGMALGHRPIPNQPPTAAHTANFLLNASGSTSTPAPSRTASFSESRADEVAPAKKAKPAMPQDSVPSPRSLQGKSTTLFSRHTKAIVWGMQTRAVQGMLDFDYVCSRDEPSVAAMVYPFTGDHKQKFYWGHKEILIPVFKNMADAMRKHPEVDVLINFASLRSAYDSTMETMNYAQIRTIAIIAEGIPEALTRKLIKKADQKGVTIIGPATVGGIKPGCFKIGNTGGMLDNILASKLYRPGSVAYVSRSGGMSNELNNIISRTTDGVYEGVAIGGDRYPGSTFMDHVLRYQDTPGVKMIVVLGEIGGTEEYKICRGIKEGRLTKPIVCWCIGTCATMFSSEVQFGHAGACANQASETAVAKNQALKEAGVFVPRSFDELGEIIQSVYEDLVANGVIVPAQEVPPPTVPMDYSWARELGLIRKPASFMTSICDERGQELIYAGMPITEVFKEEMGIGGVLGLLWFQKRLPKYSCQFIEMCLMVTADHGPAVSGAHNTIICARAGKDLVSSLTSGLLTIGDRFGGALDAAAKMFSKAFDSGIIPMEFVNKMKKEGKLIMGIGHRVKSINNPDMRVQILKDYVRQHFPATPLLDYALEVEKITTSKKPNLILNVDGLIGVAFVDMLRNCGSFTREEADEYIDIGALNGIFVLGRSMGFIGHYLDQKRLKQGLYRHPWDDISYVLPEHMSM

The test concerns the target T1, ER resident protein 44 (human (endogenous in CNE2)) (UniProt Q9BS26).
T1 sequence: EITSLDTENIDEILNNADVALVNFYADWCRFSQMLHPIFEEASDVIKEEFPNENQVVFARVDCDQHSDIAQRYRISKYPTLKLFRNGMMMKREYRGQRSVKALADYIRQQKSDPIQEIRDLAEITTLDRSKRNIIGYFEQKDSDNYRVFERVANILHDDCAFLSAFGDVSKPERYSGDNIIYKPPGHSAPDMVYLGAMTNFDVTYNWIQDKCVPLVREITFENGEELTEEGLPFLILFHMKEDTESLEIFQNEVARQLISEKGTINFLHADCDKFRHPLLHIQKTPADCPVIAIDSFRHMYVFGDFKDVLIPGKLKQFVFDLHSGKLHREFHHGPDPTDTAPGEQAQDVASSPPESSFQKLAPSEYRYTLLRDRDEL
In words: co-IP; endogenous proteins in CNE2 cells; Pierce Co-Immunoprecipitation Kit, antibody-coupled resin, 4 °C, overnight; western blot with anti-ERp44 and anti-ACLY. On the technique in general: A western blot detects proteins with antibodies after separation by electrophoresis.

These are yes or no findings as the source states them, for the method shown. Binding seen in cells or lysates may run through a third protein. Some entries that bind do so weakly or less than the wild type.

Take “ATP citrate lyase (from UniProt P53396 1-1101) (enzyme)”: the binding result is reported as “binds”.
